For at least one compound, name, drawing or mass did not settle the structure.
Legend:
Type in all cases: in vivo, rat
[1] = system: male Long-Evans rats; test: Delayed spontaneous alternation in a 4-arm cross maze (30 second delay); details: vs saline
Description: For behavioral studies, male Long-Evans rats were purchased from Harlan (Indianapolis, Ind.) weighing between 325-375 g. Rats were individually housed in plastic cages (20.3 cm×20.3 cm×41.9 cm) in an environmentally controlled room (23° C., 30% humidity) on a 12 h:12 h light:dark cycle (lights on at 7:00 am). After at least four days to acclimate to the colony room, rats were handled for 10 minutes per day for four days to adjust to being handled during training and testing. At the same time rats began to be handled, rats were also food restricted to reduce their weight to 85-90% of their ad libitum weight. Rats had free access to water throughout the experiment. Animal care and use conformed to the guidelines of the National Institutes of Health Guide for the Care and Use of Laboratory Animals, and was approved by the Institutional Laboratory Animal Care and Use Committee at the University of Illinois at Chicago.
All behavioral testing occurred in a cross maze made of translucent black acrylic. Each arm measured 55 cm long, 10 cm wide, and 15 cm in height. A circular food well, with a diameter of 3.2 cm and a depth of 1.6 cm was placed 3 cm from the end of each arm. The maze was placed on a table with a height of 72 cm.
In this test, rats were placed in the testing room 5 minutes prior to behavioral testing. At the beginning of a session, a rat was allowed to freely choose an arm, but after making a choice, a block was placed into that arm for 30 seconds preventing a rat from entering another arm. The block was a 21.5 cm×12 cm piece of plastic. After the 30 second delay, the block was removed and a rat was allowed to enter another arm. The number and sequence of arm entries was recorded. An arm entry was recorded when all four paws entered an arm. An alternation was defined as entry into four different arms on overlapping quadruple sets of arm entries; e.g., a quadruple set consisting of arm choices A, D, C, B was an alternation but a quadruple set consisting of arm choices A, D, A, C was not. […]

[2] = system: phosphoinositide signaling pathway in the hippocampus; test: Inositol-1-phosphate (IP) production in hippocampus of lithium-treated rats (TR-FRET assay); details: 3 to 30 mg/kg intraperitoneally; lithium chloride 10 mmol/kg 30 minutes before; hippocampi taken 60 minutes later
[3] = system: male Long-Evans rats; test: Visual cue discrimination acquisition and switch to place discrimination (strategy switching); details: for trials to criterion, switch to place strategy / perseverative errors, switch to place discrimination / regressive errors, switch to place discrimination: P<0.01
Description: In a separate experiment, the effect of CDD-0102A on initial learning of a visual cue strategy and switch to a place strategy was determined. All other aspects of the testing procedure were as described above. The treatment groups in this experiment were as follows: 1) saline—saline (n=8); 2) saline—CDD-0102A 0.003 mg/kg (n=7); 3) saline—CDD-0102A 0.03 mg/kg (n=7); 4) vehicle—CDD-0102A 0.1 mg/kg (n=8); 5) CDD-0102A 0.03 mg/kg-saline (n=7); or 6) CDD-0102A 0.01 mg/kg-saline (n=8).
These same types of errors were calculated in a similar manner for the experiment in which rats first learned a visual cue strategy and then switched to a place strategy.
In the spontaneous alternation task, a one-way analysis of variance was used to identify differences in percent alternation scores and number of arm entries across groups. Newman-Keuls post-hoc tests were used to compare treatment and control group measures. In the discrimination learning tests, one-way analyses of variance were used to identify differences in trials to criterion for acquisition and strategy switching. Separate analyses of variance were carried out to determine group differences in perseverative, regressive, and never-reinforced errors. Newman-Keuls post-hoc tests were used to compare differences between treatment groups.

[4] = system: normal rats; test: Example 2: delayed spontaneous alternation test in a modified T-maze; details: range 0.1 mg/kg to 1 mg/kg ip; 30 seconds delay

Compound: CCc1noc(C2CN=CNC2)n1 (stereo not shown) [CDD-0102A, 5-(3-ethyl-1,2,4-oxadiazol-5-yl)-1,4,5,6-tetrahydropyrimidine]
- percent alternation score (delayed spontaneous alternation) ([1]; 0.1 mg/kg i.p. 30 minutes before testing, P<0.05): significantly enhanced
- percent alternation score (delayed spontaneous alternation) ([1]; 0.3 mg/kg i.p. 30 minutes before testing, P<0.01): significantly enhanced
- percent alternation score (delayed spontaneous alternation) ([1]; 1.0 mg/kg i.p. 30 minutes before testing, P<0.01): significantly enhanced
- inositol-1-phosphate (IP) concentration in hippocampus [2]: dose-dependent increase in IP
- trials to criterion, switch to place strategy ([3]; 0.03 mg/kg i.p. before switch phase): significantly enhanced
- perseverative errors, switch to place discrimination ([3]; 0.03 mg/kg i.p.): significantly decreased
- regressive errors, switch to place discrimination ([3]; 0.03 mg/kg i.p.): significantly decreased
- trials to criterion, switch to place strategy ([3]; 0.1 mg/kg i.p. before switch phase): significantly enhanced
- perseverative errors, switch to place discrimination ([3]; 0.1 mg/kg i.p.): significantly decreased
- regressive errors, switch to place discrimination ([3]; 0.1 mg/kg i.p.): significantly decreased
- trials to criterion, acquisition of visual cue discrimination ([3]; CDD-0102A i.p. 30 minutes prior to acquisition, vs other groups): performed in a similar manner
- never-reinforced errors, switch to place discrimination ([3]; all doses): no overall group effect
- performance in delayed spontaneous alternation [4]: improved performance in a dose-related way
